Experimental data published in patent publication US7091207B2, “Method of treating myocardial infarction with PDE-5 inhibitors” (Virginia Commonwealth University, priority 2002, dated 2006).
Entries after “also recorded” stand apart in the source; their conditions may differ. For at least one compound, name, drawing or mass did not settle the structure.

System: rabbit heart, ischemia/reperfusion injury
Assay: In situ rabbit model of myocardial infarction (30 min coronary occlusion, 180 min reperfusion), infarct size by TTC staining
Format: in vivo
Details: 5 mg/kg iv, 30 minutes before ischemia; vs saline controls

CCCc1nc(C)c2c(=O)[nH]c(-c3cc(S(=O)(=O)N4CCN(CC)CC4)ccc3OCC)nn12 [Vardenafil]
myocardial infarct size: significant reduction of myocardial infarct size; also recorded: significant reduction in the infarct size
